# Source: PubChem BioAssay (NCATS)
# Inconclusive results, whose numbers are uncertain, are shown with a selection of clear calls. For some assays here: Where the call is inconclusive, the potency comes from a doubtful curve fit. The source made the active and inactive calls. Calls come from the whole dose curve; as a rule, active = well fitted curve in the direction sought with a large enough effect; inconclusive = small, poorly fitted or top-dose-only effect, or another doubt; inactive = no such curve, though single readings can be large; an effect the other way counts as inactive or inconclusive.
# Legend:
# [1] = Quantitative highthroughput screen to assess conditional lethalithy of P12 Ichikawa cells grown in Human Plasma-Like Medium with dialyzed fetal bovine serum (HPLM+ds) (AID 1963879); conditions: ATP luminescence, 48 h; Potency: viability; series mostly up to 45.8 µM; note: potency is the fitted concentration of half-maximal effect; nearly all actives have a fitted effect of over 35% in size
# Summary of the method: (§1)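 Each medium arm—HPLM with 10% dialyzed FBS, or RPMI1640 with 5 mM glucose and 10% untreated or dialyzed FBS—was screened against an 11-point, 3-fold compound titration for 48 h at 37 °C, with CellTiter-Glo luminescence as endpoint.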
# [2] = Quantitative highthroughput screen to assess conditional lethalithy of P12 Ichikawa cells grown in RPMI1640 with dialyzed fetal bovine serum (RPMI+ds) (AID 1963880); conditions: ATP luminescence, 48 h; Potency: P12-Ichikawa viability; series mostly up to 45.8 µM; note: nearly all actives have a fitted effect of over 35% in size; note: potency is the fitted concentration of half-maximal effect;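 for viability: 100% = DMSO wells and 0% = empty wells on each plate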
# Summary of the method: as §1
# [3] = Quantitative highthroughput screen to assess conditional lethalithy of SEM cells grown in Human Plasma-Like Medium with dialyzed fetal bovine serum (HPLM+ds) (AID 1963882); conditions: SEM B-ALL cells in HPLM+ds, CellTiter-Glo viability, 48 h; series mostly up to 45.8 µM; note: nearly all actives have a fitted effect of over 35% in size; note: potency is the fitted concentration of half-maximal effect
# Summary of the method: as §1
# [4] = Quantitative highthroughput screen to assess conditional lethalithy of SEM cells grown in RPMI1640 with unreated serum (RPMI+s) (AID 1963883); conditions: SEM B-ALL cells, CellTiter-Glo viability, 48 h; series mostly up to 45.8 µM; note: nearly all actives have a fitted effect of over 35% in size; note: potency is the fitted concentration of half-maximal effect;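 for viability: 100% = DMSO wells and 0% = empty wells without cells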
# Summary of the method: as §1
# [5] = Quantitative highthroughput screen to assess conditional lethalithy of SEM cells grown in RPMI1640 with dialyzed fetal bovine serum (RPMI+ds) (AID 1963884); conditions: SEM B-ALL cells, RPMI+dialyzed FBS, CellTiter-Glo viability, 48 h; series mostly up to 45.8 µM; note: nearly all actives have a fitted effect of over 35% in size; note: potency is the fitted concentration of half-maximal effect;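 for viability: 100% = DMSO control wells and 0% = empty wells without cells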
# Summary of the method: as §1
# [6] = Cellular viability qHTS for adrenocortical cancer (ACC) cell line SW-13 (AID 1963989); conditions: SW-13 ACC cells viability, CellTiter-Glo, 48 h; activity (max response): hits give low values; note: nearly all actives have a fitted effect of over 65% in size; note: potency is the fitted concentration of half-maximal effect;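 for activity (max response): cells grown in serum-free medium with ITS supplement; % is set by controls: 0 for no effect and ±100 for the full control effect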
# Summary of the method: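 IC50 and maximal-response values come from four-parameter logistic fits of titration data. SW-13 cells in serum-free medium received compounds (up to 46 uM final) for 48 h before CellTiter-Glo luminescence.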
# [7] = Cellular viability qHTS for adrenocortical cancer (ACC) cell line NCI-H295R (AID 1963990); conditions: CellTiter-Glo ATP luminescence, 48 h; activity change, negative = viability loss: at 46.1 µM (top of the series); note: nearly all actives have a fitted effect of over 60% in size; note: potency is the fitted concentration of half-maximal effect;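 for activity change, negative = viability loss: 0% = DMSO only wells and -100% = full killing with cytotoxic reference compound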
# Summary of the method: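 Adrenocortical carcinoma cells, suspended at 300 000 cells/mL in serum-free DMEM plus ITS, rested overnight before pin transfer of compound. After two days' incubation, ATP-dependent luminescence was recorded and curve-fitted.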
# [8] = Quantitative highthroughput screen to assess conditional lethalithy of NOMO1 cells grown in Human Plasma-Like Medium with dialyzed fetal bovine serum (HPLM+ds) (AID 1963878); conditions: NOMO1 AML cells in HPLM+ds, CellTiter-Glo viability, 48 h; series mostly up to 45.8 µM; note: nearly all actives have a fitted effect of over 35% in size; note: potency is the fitted concentration of half-maximal effect;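 for viability: 100% = DMSO wells and 0% = empty wells on each plate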
# Summary of the method: as §1
# [9] = Quantitative highthroughput screen to assess conditional lethalithy of P12 Ichikawa cells grown in RPMI1640 with untreated serum (RPMI+s) (AID 1963881); conditions: ATP luminescence, 48 h; Potency: viability; series mostly up to 45.8 µM
# Summary of the method: as §1
compound,measurement,setting,value
N=c1c2c(-c3ccccc3)c(-c3ccccc3)n(Cc3ccccc3)c2ncn1C1CCC(O)CC1 (stereo not drawn),Potency,[1],"inconclusive: 14.8 µM [cytotoxic, partial curve]"
same,Potency,[2],active: 16.6 µM
same,Potency,[3],"inconclusive: 0.235 µM [cytotoxic, full curve]"
same,Potency,[4],"inconclusive: 0.296 µM [cytotoxic, full curve]"
same,Potency,[5],"inconclusive: 0.332 µM [cytotoxic, full curve]"
same,Potency,[6],active: 17.8 µM
Cc1[nH]ncc1-c1cc2nc([C@@H]3CC4CCN3CC4)[nH]c(=O)c2s1,Potency,[6],active: 28.2 µM
same,Potency,[7],active: 28.2 µM
CC(C)N[C@@H]1CCn2c(=O)[nH]c3cccc(c32)[C@@H]1O,Potency,[8],"inconclusive: 18.7 µM [cytotoxic, partial curve]"
same,Potency,[9],inactive
same,Potency,[3],inactive
CCS(=O)(=O)C(C)(C)S(=O)(=O)CC,activity (max response),[6],inactive: -10.9%
same,Potency,[7],inactive
O=[N+]([O-])c1ncc[nH]1,Potency,[8],inactive
same,Potency,[2],inactive
same,Potency,[3],inactive
same,Potency,[4],inactive
same,Potency,[5],inactive
COc1ccc2c(c1)[C@]13CCCCC1C(C2)N(C)CC3 (stereo partly drawn),Potency,[8],"inconclusive: 23.5 µM [cytotoxic, single point]"
same,Potency,[2],"inconclusive: 37.2 µM [cytotoxic, single point]"
CC(C)(C)[C@]1(O)C[C@@H]2OC(=O)C[C@@]23C(=O)O[C@@H]2OC(=O)[C@H](O)C213 (stereo partly drawn),Potency,[4],inactive
Clc1ccc(CO/N=C(\Cn2ccnc2)c2ccc(Cl)cc2Cl)c(Cl)c1,Potency,[6],"inconclusive: 20.6 µM [cytotoxic, single point]"
same,Potency,[7],"inconclusive: 29.1 µM [cytotoxic, single point]"

# In another format: entries from further up.
compound | measurement | setting | value
O=[N+]([O-])c1ncc[nH]1 | Potency | [5] | inactive
COc1ccc2c(c1)[C@]13CCCCC1C(C2)N(C)CC3 (stereo partly drawn) | Potency | [8] | inconclusive: 23.5 µM [cytotoxic, single point]
same | Potency | [2] | inconclusive: 37.2 µM [cytotoxic, single point]
CC(C)(C)[C@]1(O)C[C@@H]2OC(=O)C[C@@]23C(=O)O[C@@H]2OC(=O)[C@H](O)C213 (stereo partly drawn) | Potency | [4] | inactive
Clc1ccc(CO/N=C(\Cn2ccnc2)c2ccc(Cl)cc2Cl)c(Cl)c1 | Potency | [6] | inconclusive: 20.6 µM [cytotoxic, single point]
same | Potency | [7] | inconclusive: 29.1 µM [cytotoxic, single point]
